Test results from patent US20250066499A1 (SUNSHINE GUOJIAN PHARMACEUTICAL SHANGHAI, published 2025).
Where a chain is given by its changes, count along the chain named. In names and notes the source's numbering stands. No constants are given. Whether binding was seen depends on the method and setting. Some results given as binding are weak or reduced against the parent protein; the word gives no strength. For some assays here: Where a sequence is shown, tags or fusion partners need not be part of it.

T1: human CD73-His protein (human, UniProt P21589 27-549)
T1 sequence: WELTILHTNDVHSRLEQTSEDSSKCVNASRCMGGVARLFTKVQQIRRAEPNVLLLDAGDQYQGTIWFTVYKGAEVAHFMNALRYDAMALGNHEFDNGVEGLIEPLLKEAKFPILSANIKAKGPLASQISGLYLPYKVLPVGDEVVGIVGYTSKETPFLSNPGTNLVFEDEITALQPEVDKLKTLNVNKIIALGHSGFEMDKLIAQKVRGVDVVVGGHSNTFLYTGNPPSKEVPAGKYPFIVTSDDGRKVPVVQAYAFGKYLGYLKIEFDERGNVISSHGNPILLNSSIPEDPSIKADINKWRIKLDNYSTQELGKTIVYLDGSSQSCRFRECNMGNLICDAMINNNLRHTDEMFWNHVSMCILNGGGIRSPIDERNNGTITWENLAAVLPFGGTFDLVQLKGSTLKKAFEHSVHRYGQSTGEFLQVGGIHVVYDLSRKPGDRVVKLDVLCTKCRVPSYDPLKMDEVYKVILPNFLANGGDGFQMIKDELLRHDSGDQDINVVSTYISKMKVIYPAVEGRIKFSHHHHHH

B1: 56B10-HuV31 (antibody, human IgG4, V domains shown)
VH: QVQLQQSGAEVKKPGASVKVSCKASGYTFTRYYIYWVRQRPGQGLEWIGWIYPGNFNTKYNEKFKGRATLTADTSASTAYMELSSLTSEDTAVYYCARDVYDYAGFAYWGQGTLVTVSS
VL: DIQLTQSPSFLSASVGDRVTITCKASQGVATAVAWYQQKPGQSPKLLIYWASTRHTGVPDRFSGSGSGTEFTLTISSLQPEDFATYYCQQYSSYPWTFGQGTKVEIK
notes: Humanized
B2: 48A11-HuV33 (antibody, human IgG4, V domains shown)
VH: QVQLVQSGAEVKKPGASVKVSCKASGYTFTSYWMHWVRQAPGQGLEWIGEINPSIGRTNYNEKFKSRVTLTRDTSTSTAYMELSSLRSEDTAVYYCARRVYGTMDYWGQGTLVTVSS
VL: DIQMTQSPSSLSASVGDRVTITCKASQDINSYLSWFQQKPGKSPKLLIYRANIWVDGVPSRFSGSGSGQDYTFTISSLQPEDIATYYCLQYDELYTFGQGTKVEIK
notes: Humanized
B3: 56B10-HuV21 (antibody, human IgG4, V domains shown)
VH: B1 VH with Q5V, A24T, R40A, T87R
VL: B1 VL
notes: Humanized
B4: 56B10-HuV23 (antibody, human IgG4, V domains shown)
VH: B1 VH with Q5V, A24T, R40A, T87R
VL: B1 VL with L4M, Q42K, D60S, Y87F
notes: Humanized
B5: 56B10-HuV32 (antibody, human IgG4, V domains shown)
VH: B1 VH
VL: B1 VL with Q42K, S43A, D60S
notes: Humanized
B6: 56B10-HuV33 (antibody, human IgG4, V domains shown)
VH: B1 VH
VL: B1 VL with L4M, Q42K, D60S, Y87F
notes: Humanized
B7: 48A11-HuV23 (antibody, human IgG4, V domains shown)
VH: B2 VH with V68A, R72V, T74K
VL: B2 VL
notes: Humanized
B8: 48A11-HuV22 (antibody, human IgG4, V domains shown)
VH: B2 VH with V68A, R72V, T74K
VL: B2 VL with L46T
notes: Humanized
B9: 48A11 (antibody, V domains shown)
VH: QVQLQQPGAELVKPGASVKLSCKASGYTFTSYWMHWVKQRPGQGLEWIGEINPSIGRTNYNEKFKSKATLTVDKSSSTAFMQLSSLTSEDSAVYYCARRVYGTMDYWGQGTSVTVSS
VL: DIKMTQSPSSMYASLGERVTITCKASQDINSYLSWFQQKPGKSPKTLIYRANIWVDGVPSRFSGSGSGQDYSLTISSLEYEDMGIYYCLQYDELYTFGGGTKLEIK
notes: Murine hybridoma antibody; also called murine-derived antibody 48A11
B10: 56B10 (antibody, V domains shown)
VH: QVQLQQSGPELVKPGASVRISCKTSGYTFTRYYIYWVKQRPGQGLEWIGWIYPGNFNTKYNEKFKGKATLTADTSSSTAYMQLSSLTSEDSAVYFCARDVYDYAGFAYWGQGTLVTVSA
VL: DIVMTQSHRFLSTSVGDRVSITCKASQGVATAVAWYQQKPGQSPKLLIYWASTRHTGVPDRFTGSGSGTDFTLTISNVQSEDLADYFCQQYSSYPWTFGGGTKLEIK
notes: Murine hybridoma antibody; also called murine-derived antibody 56B10
B11: 48A11-ch (antibody, human IgG4 S228P, kappa, V domains shown)
VH: B9 VH
VL: DIKMTQSPSSMYASLGERVTITCKASQDINSYLSWFQQKPGKSPKTLIYRANIWVDGVPSRFSGSGSGQDYSLTISSLEYEDMGIYYCLQYDELYTFGGGTKLEIKR
notes: Chimeric: murine variable regions spliced with human IgG4 (S228P) and human kappa constant regions; also called chimeric antibody 48A11-ch
B12: 56B10-ch (antibody, human IgG4 S228P, kappa, V domains shown)
VH: B10 VH
VL: DIVMTQSHRFLSTSVGDRVSITCKASQGVATAVAWYQQKPGQSPKLLIYWASTRHTGVPDRFTGSGSGTDFTLTISNVQSEDLADYFCQQYSSYPWTFGGGTKLEIKR
notes: Chimeric: murine variable regions spliced with human IgG4 (S228P) and human kappa constant regions; also called chimeric antibody 56B10-ch

These binders were tested against cynomolgus monkey CD73 protein (cynomolgus monkey) (assay: SPR Biacore 8K, antibody captured on Protein A/G).

Binder	binding
B1	binds
B2	binds

Each binder was assayed against T1, human CD73-His protein (assay: ELISA, biotinylated CD73-His on streptavidin plate).

Binder	binding
B1	binds
B3	binds
B4	binds
B5	binds
B6	binds
B7	binds
B8	binds
B2	binds
B9	binds
B10	binds

These binders were tested against T1, human CD73-His protein (assay: ELISA as in Example 3, antigen CD73-his, antibody titrated, absorbance 450 nm).

Binder	binding
B1	binds
B2	binds

Each binder was assayed against T1, human CD73-His protein (assay: ELISA as in Example 3 (biotinylated CD73-His on streptavidin plate), absorbance 450 nm).

Binder	binding
B1	binds
B3	binds
B4	binds
B5	binds
B6	binds
B11	binds
B7	binds
B8	binds
B2	binds
B12	binds

These binders were tested against T1, human CD73-His protein (assay: indirect ELISA, biotinylated CD73-His captured on streptavidin-coated plate, HRP goat anti-mouse IgG, absorbance 450 nm).

Binder	binding
B9	binds
B10	binds
